In PubChem BioAssay AID1487 (National Center for Advancing Translational Sciences (NCATS), 2009) one finds AC50 data, which are given here for 52 compounds.

Molecules are shown by their SMILES. “And” between values parts separate entries of the source, which are not always exact repeats. Identical values can stand only once. The list shows a part of the results. Shown are side measurements of this screen, not its main read-out; they come without a call. Compounds called inactive in the main read-out are mostly missing here. Words in brackets tell the shape of the fitted curve; partial curves, single points and poor fits give uncertain potencies.

The nature of the test: qHTS Assay for Modulators of Lamin A Splicing. Particulars: HeLa LMNA splicing GFP/RFP minigene ratio, 48 h. In short, it runs like this: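 S3 HeLa cells stably expressing lamin A-EGFP splicing minigene plus DsRed2, 600 cells/well, 48 h compound exposure at 37C. Laser-scanning cytometry; analysed as GFP (500-530 nm)/RFP (575-640 nm) total intensity ratio; 0.5% DMSO vehicle.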
On the technique in general: qHTS replaces the single test concentration by a dilution series.

Setting [1] is: measured here: RFP viability control channel.
Where [2] appears, read: measured here: GFP splicing reporter channel.

Broadly, the AC50 is the midpoint of the concentration-response curve, whichever way the signal moves. Turning to `c1ccc(-c2nnc(SCC3CCCCO3)nc2-c2ccccc2)cc1` (stereo unspecified), the concentration at half-maximal activity (AC50) under setting [1] is 17.8 µM [rising, single point].

In the case of `CC(=O)[C@@H]1[C@@H](C(=O)c2ccccc2)[C@]2(C(=O)Nc3ccccc32)[C@H]2C=Cc3cc(F)ccc3N12`, the concentration at half-maximal activity (AC50) under setting [1] was 0.501 µM [rising, partial curve, poor fit].

Turning to `O=C(/C=C/Sc1ncn[nH]1)c1ccc(Cl)cc1`, the AC50 under setting [2] was 4.47 µM [falling, full curve] and the concentration at half-maximal activity (AC50) under setting [1] was 8.91 µM [falling, partial curve].

With `Cc1cccc(-c2nnc(SCCC(=O)N3CCOCC3)o2)c1`, the AC50 is 3.98 µM [falling, partial curve] under setting [2] and 3.98 µM [falling, partial curve, poor fit] under setting [1].

For `Cc1cccc(NC(=O)NC2COc3ccccc3C2)c1C` (stereo unspecified), the half-maximal activity concentration (AC50) under setting [2] is 39.8 µM [rising, partial curve, poor fit].

`CCSc1ccccc1C(=O)Nc1ccc2c(c1)OCO2`: under setting [2], the half-maximal activity concentration (AC50) was 14.1 µM [rising, partial curve, poor fit].

`CC(OC(=O)c1cc2sccc2n1C)C(=O)NCc1cccs1` (stereo unspecified): the concentration at half-maximal activity (AC50) under setting [1] is 35.5 µM [rising, single point].

`Cc1ccc(CSCCNC(=O)c2ccc(Cl)c(S(=O)(=O)N3CCOCC3)c2)cc1`: under setting [1], the AC50 is 14.1 µM [rising, single point].

For `CCCCS(=N)(=O)CCC(N)C(=O)O` (stereo unspecified), the AC50 is, setting by setting: under setting [2], 35.5 µM [rising, single point]; under setting [1], 17.8 µM [rising, single point].

Regarding `CC(=O)O[C@H]1CC2(C)[C@@H](C[C@@H](O)[C@H]3[C@@]4(C)CC[C@@H](O)[C@@H](C)[C@@H]4CC[C@@]32C)C1=C(CCC=C(C)C)C(=O)O` (stereo partly specified), the AC50 under setting [2] is 0.0355 µM [rising, full curve, poor fit].

As to `Cc1ccccc1NC(=O)CSc1nc(Nc2ccccc2)nc(N2CCOCC2)n1`, the AC50 under setting [1] was 11.2 µM [rising, partial curve].

Take `C=CCn1c(COc2cccc(C)c2C)nnc1SCC(=O)N1CCN(c2ccccc2)CC1`: under setting [1], the AC50 was 3.55 µM [rising, partial curve].

Consider `Cc1cc(C)cc(NC(=O)C(=O)NCC(c2cccnc2)N2CCc3ccccc32)c1` (stereo unspecified), for which the AC50 under setting [2] was 0.708 µM [rising, full curve, poor fit] and the half-maximal activity concentration (AC50) under setting [1] is 1.41 µM [rising, full curve].

As for `CCC/C=C(\CCC)C(NS(=O)(=O)c1cccc2cccnc12)c1ccc(C(=O)OC)cc1` (stereo unspecified), the half-maximal activity concentration (AC50) was 15.8 µM [rising, single point] under setting [2] and 25.1 µM [rising, single point] under setting [1].

Regarding `C[C@@H]1CN(c2c(F)c(F)c3c(=O)c(C(=O)O)cn(C4CC4)c3c2F)C[C@H](C)N1`, the AC50 under setting [2] was 0.000794 µM [falling, full curve, poor fit].

With `N#C/C(=C\C=C\c1ccccc1[N+](=O)[O-])C(=O)NC1CCCCC1`, the AC50 under setting [1] is 11.2 µM [rising, partial curve].

For the compound `O=C1CCCN1CCCNc1ncnc2c1cnn2-c1ccc(Cl)cc1`, the concentration at half-maximal activity (AC50) under setting [1] is 15.8 µM [rising, partial curve].

As for `CC(=O)c1c(C)[nH]c(C(=O)OCC(=O)Nc2cc(C)on2)c1C`, the AC50 under setting [1] was 35.5 µM [rising, single point].

`O=S(=O)(Nc1cccc(-c2ccc(N3CCOCC3)nn2)c1)c1cc(C(F)(F)F)ccc1Cl`: the concentration at half-maximal activity (AC50) under setting [2] was 0.01 µM [rising, full curve, poor fit].

Consider `COc1cc(OC)cc(-c2nc3ccccc3c(=O)n2OC(=O)c2ccccc2C)c1`, for which the half-maximal activity concentration (AC50) under setting [1] is 14.1 µM [rising, partial curve].

On to `O=C(/C=C/c1ccccc1)Nc1cccc(C(=O)O)c1`, for which the AC50 under setting [2] was 1.12 µM [falling, full curve, poor fit] and the AC50 under setting [1] is 1.78 µM [falling, full curve, poor fit].

On to `CC(C)Cn1c(CN(C)Cc2ccccc2)nc2c1c(=O)n(C)c(=O)n2C`, for which the AC50 under setting [1] was 20 µM [rising, single point].

With `C/C(Cc1ccccc1)=N\NC(=O)CNC(=O)c1ccccc1Br`, the AC50 under setting [1] is 0.0562 µM [rising, full curve, poor fit].

As to `O=C(NCc1ccccc1Cl)c1cnc(N2CCCCC2)c2ccccc12`, the AC50 is 0.178 µM [falling, full curve, poor fit] under setting [2] and 0.158 µM [falling, full curve, poor fit] under setting [1].

For `Cc1cccc(C2c3[nH]c4ccccc4c3CCN2C(=O)c2cn(C)c3ccccc3c2=O)n1` (stereo unspecified), the AC50 runs as follows: under setting [2], 3.55 µM [falling, single point]; under setting [1], 5.01 µM [falling, partial curve, poor fit].

On to `CCc1ccc(C2C(C#N)=C(N)N(N(C)C)C3=C2C(=O)CCC3)s1` (stereo unspecified), for which, under setting [2], the AC50 was 12.6 µM [rising, partial curve].

In the case of `O=C(Cc1cccs1)N1CCN(c2ccccn2)CC1`, the concentration at half-maximal activity (AC50) is 17.8 µM [rising, partial curve, poor fit] under setting [2] and 5.62 µM [rising, partial curve, poor fit] under setting [1].

Take `Cc1cccc(-c2nc(Nc3ccc(N4CCOCC4)cc3)c3ccccc3n2)c1`: the AC50 under setting [1] was 15.8 µM [rising, single point].

Consider `Cc1ccc(CNC(=O)c2cc(C3CC3)nc3c2c(C)nn3-c2cccc(Cl)c2C)cc1`, for which the AC50 was 1.58 µM [rising, partial curve] under setting [2] and 0.794 µM [rising, partial curve, poor fit] under setting [1].

As for `O=C(NCCN1CCOCC1)c1cc(-c2ccccc2)on1`, the concentration at half-maximal activity (AC50) under setting [1] was 35.5 µM [falling, single point].

Consider `Cc1ccc(NC(=O)CSC2=C(C#N)C(c3ccc4c(c3)OCO4)CC(=O)N2)cc1C` (stereo unspecified), for which the AC50 under setting [1] was 22.4 µM [rising, single point].

Take `CCn1c(Sc2ccc([N+](=O)[O-])cn2)nnc1-c1ccco1`: the concentration at half-maximal activity (AC50) under setting [1] is 20 µM [falling, single point].

Take `Cc1cc([N+](=O)[O-])ccc1NC(=S)NC(=O)C(c1ccccc1)c1ccccc1`: under setting [1], the AC50 is 35.5 µM [rising, single point].

In the case of `CCOc1ccccc1-n1c(CN2CCN(C(=O)c3ccco3)CC2)nc2ccccc2c1=O`, the concentration at half-maximal activity (AC50) by setting is: under setting [2], 12.6 µM [falling, partial curve]; under setting [1], 25.1 µM [falling, partial curve, poor fit].

Regarding `COc1ccc(C(=O)/C=C/c2ccc(F)cc2)c(OC(=O)c2ccc([N+](=O)[O-])cc2)c1`, the half-maximal activity concentration (AC50) by setting is: under setting [2], 35.5 µM [falling, single point]; under setting [1], 35.5 µM [falling, single point].

In the case of `COc1ccc(N2CCN(C(=O)CSc3nnnn3-c3ccc4c(c3)OCCO4)CC2)cc1`, the concentration at half-maximal activity (AC50) under setting [2] was 3.98 µM [rising, partial curve, poor fit].

`Cc1ccc(CSCc2nnc(SCC(=O)N3CCN(c4ccccc4)CC3)n2C)cc1`: the AC50 is, setting by setting: under setting [2], 20 µM [rising, partial curve]; under setting [1], 12.6 µM [rising, single point].

As for `O=C(Nc1ccc(Cl)cc1C(F)(F)F)C(Sc1cccc[n+]1[O-])c1ccccc1` (stereo unspecified), the AC50 was 1.12 µM [falling, partial curve] under setting [2] and 1.12 µM [falling, partial curve] under setting [1].

With `Cc1nc(N2CCC(C)CC2)c2nnn(Cc3ccccc3)c2n1`, the AC50 under setting [1] is 31.6 µM [rising, single point].

`N=c1nc(N2CCCCC2)cc(N)n1O`: the concentration at half-maximal activity (AC50) is 0.891 nM [falling, full curve] and 631 nM [falling, full curve, poor fit] under setting [2]; 0.251 µM [falling, full curve] under setting [1].

On to `CCC1CN(C(=O)N2CCC(C(=O)NCc3cc(OC)ccc3OC)CC2)c2ccccc2O1` (stereo unspecified), for which, under setting [2], the AC50 is 5.01 µM [rising, partial curve, poor fit].

Consider `Cc1ccc(S(=O)(=O)N2CCCCC2)cc1NC(=O)c1ccc2c(=O)n3c(nc2c1)CCCCC3`, for which the AC50 under setting [1] is 17.8 µM [rising, single point].

For the compound `O=C(CN(c1cccc(C(F)(F)F)c1)S(=O)(=O)c1ccc(Cl)c([N+](=O)[O-])c1)NCc1ccc(F)cc1`, under setting [2], the AC50 is 35.5 µM [falling, single point].

As to `Cn1c(C(=O)NCc2ccc(F)cc2)cc2cc(S(=O)(=O)N3CCCCC3)ccc21`, the half-maximal activity concentration (AC50) under setting [1] is 0.562 µM [rising, single point].

Take `Nc1c(S(=O)(=O)c2cccs2)c2nc3ccccc3nc2n1/N=C/c1cccc(O)c1`: the AC50 runs as follows: under setting [2], 35.5 µM [falling, single point]; under setting [1], 31.6 µM [falling, partial curve, poor fit].

Regarding `Cc1cccc2nc(CSC(=N)N)c(Br)n12`, the AC50 under setting [1] is 31.6 µM [rising, single point].

Regarding `COc1ccccc1Cn1c(CNS(=O)(=O)c2ccc(CC(C)C)cc2)nc2cccnc21`, the AC50 under setting [2] was 7.94 µM [falling, partial curve].

Consider `O=C(C1CCCN(S(=O)(=O)c2cccc3nsnc23)C1)N1CCc2ccccc2C1` (stereo unspecified), for which the half-maximal activity concentration (AC50) was 7.08 µM [rising, partial curve, poor fit] under setting [2] and 11.2 µM [rising, partial curve] under setting [1].

Regarding `Cc1cccc2c1N(CCOc1ccccc1)C(=O)C2=O`, the half-maximal activity concentration (AC50) is 2.51 µM [rising, partial curve, poor fit] under setting [2] and 2.51 µM [rising, partial curve, poor fit] under setting [1].

Take `COc1ccc(C)cc1NS(=O)(=O)c1ccc(NC(=O)CN(c2cc([N+](=O)[O-])ccc2C)S(C)(=O)=O)cc1`: under setting [1], the half-maximal activity concentration (AC50) is 3.55 µM [rising, single point].

For `O=C(/C=C\c1ccccc1OC(=O)c1ccccc1F)c1cc2ccccc2o1`, the AC50 is 35.5 µM [falling, single point] under setting [2] and 35.5 µM [falling, single point] under setting [1].

Take `Cc1cccc(C)c1OCC(=O)N1CCC(c2nc3ccccc3o2)CC1`: under setting [1], the AC50 is 0.0141 µM [falling, full curve, poor fit].
